PubChem BioAssay AID504764 | Drosophila RNAi Screening Center, 2011
In all, the deposit lists about 22,000 reagents; shown is a random part of those with a known target gene and a result. Of all reagents, 403 (1.9%) are marked active. 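Unnormalised raw counts per well; ratio z-scores behind the hit calls and whether each hit raises or lowers signal are not deposited.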 Names joined by + are all predicted targets of the reagent. Not given: the amount of reagent.

- Purpose: 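Genes whose knock-down alters Notch-dependent transcription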 (primary screen)
- Cell system: Drosophila Kc167 cells
- Reagent: long dsRNA against Drosophila genes
- Duration: about 5 days (4 days dsRNA, then 24 h after transfection)
- Challenge: transfection of constitutively active membrane-tethered Notch lacking the extracellular domain, read 24 h later
- Read-out: 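Light from a Notch-responsive E(spl)m3 luciferase reporter under active Notch, with control-promoter and no-Notch reporter wells to normalise; raw counts from paired wells a and b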
- Scale: induced reporter light, run 1, well a and induced reporter light, run 1, well b: higher = more light from the Notch target reporter with active Notch; control promoter light, run 1, well a and control promoter light, run 1, well b: higher = more light from the viral control promoter (cell number, transfection, viability); uninduced reporter light, run 1, well a: higher = more light from the Notch target reporter without active Notch
- Active means: 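Wells with low control signal or poorly matching duplicates excluded; duplicates averaged; per source plate, z beyond ±2 for induced/control log2 ratio or beyond ±1.8 for induced/uninduced marks a hit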
- Meaning of the calls: active = modifier hit (raised or lowered Notch signal); inactive = not a hit

target gene | dsRNA | induced reporter light, run 1, well a | induced reporter light, run 1, well b | control promoter light, run 1, well a | control promoter light, run 1, well b | uninduced reporter light, run 1, well a | outcome
CG31265 | DRSC15745 | 2.27e5 | 2.35e5 | 2.58e5 | 2.61e5 | 20260 | inactive
Hyccin | DRSC06983 | 99950 | 1.06e5 | 2.05e5 | 1.84e5 | 8550 | inactive
lncRNA:CR32553 | DRSC19229 | 1.08e5 | 88420 | 88795 | 84860 | 8460 | inactive
5PtaseI | DRSC16269 | 5220 | 7165 | 7432 | 5860 | 770 | inactive
CG7606 | DRSC13246 | 73470 | 60135 | 84955 | 66840 | 8365 | inactive
CG7606 | DRSC16268 | 2.39e5 | 2.11e5 | 2.11e5 | 2.36e5 | 18885 | inactive
S-Lap7 | DRSC06374 | 95720 | 77605 | 1.02e5 | 1.09e5 | 7560 | inactive
emp | DRSC04019 | 1.73e5 | 2.04e5 | 2.60e5 | 2.59e5 | 11970 | inactive
emp | DRSC04683 | 1.26e5 | 1.15e5 | 90025 | 1.07e5 | 6170 | active
CG14569 | DRSC11730 | 1.31e5 | 1.21e5 | 1.12e5 | 88565 | 8055 | inactive
CG14606 | DRSC12550 | 96335 | 1.10e5 | 88900 | 74785 | 5435 | inactive
CR33319 | DRSC01826 | 97115 | 92370 | 93555 | 1.28e5 | 10315 | inactive
eIF3f2 | DRSC04903 | 2.00e5 | 1.72e5 | 1.79e5 | 1.90e5 | 17060 | inactive
Rnb | DRSC16325 | 1.80e5 | 1.97e5 | 2.28e5 | 2.41e5 | 14505 | inactive
CG33502 + CG32857 + CG32500 | DRSC20817 | 2.27e5 | 2.31e5 | 4.22e5 | 3.45e5 | 20050 | inactive
CG33502 + CG32857 + CG32500 | DRSC21038 | 93880 | 1.02e5 | 1.27e5 | 1.41e5 | 11450 | inactive
CG10581 | DRSC11623 | 1.85e5 | 1.06e5 | 1.24e5 | 1.10e5 | 11790 | inactive
CG11378 | DRSC18627 | 89310 | 1.06e5 | 1.64e5 | 1.37e5 | 8185 | inactive
CG32277 | DRSC08196 | 1.08e5 | 1.04e5 | 1.74e5 | 1.40e5 | 7350 | inactive
D1 | DRSC16638 | 1.06e5 | 1.03e5 | 86655 | 89505 | 8440 | inactive

Part of the list above in another layout.
{"target gene":"Rnb","dsRNA":"DRSC16325","induced reporter light, run 1, well a":1.80e5,"induced reporter light, run 1, well b":1.97e5,"control promoter light, run 1, well a":2.28e5,"control promoter light, run 1, well b":2.41e5,"uninduced reporter light, run 1, well a":14505,"outcome":"inactive"}
{"target gene":"CG33502 + CG32857 + CG32500","dsRNA":"DRSC20817","induced reporter light, run 1, well a":2.27e5,"induced reporter light, run 1, well b":2.31e5,"control promoter light, run 1, well a":4.22e5,"control promoter light, run 1, well b":3.45e5,"uninduced reporter light, run 1, well a":20050,"outcome":"inactive"}
